The values below come from the supplement of paper PMC12425257.

± gives the standard deviation of the averaged measurements. The list shows a part of the results.

In this experiment the test system is Madurella mycetomatis MM55. As to the kind of experiment: metabolic activity (growth) relative to DMSO growth control; higher = more fungal growth. Particulars: 10 µM.
In the case of `O=C(O)C(F)(F)F.O=c1c2cnc(Nc3ccc(N4CCCCC4)cc3)nc2n2ccnc2n1-c1ccccc1Cl`, the metabolic activity is 93.8 ± 24%. Regarding `CCn1c(-c2nonc2N)nc2c(C#CC(C)(C)O)nc(OCCNC)cc21.Cl`, the metabolic activity stood at 94.9 ± 8%.

With `COc1cc(N2CCN(C)CC2)ccc1Nc1ncc2c(n1)N(C)c1ccccc1C(=O)N2`, the metabolic activity came to 69.9 ± 31%. Next, `Cc1ccc(-n2nc(C(C)(C)C)cc2NC(=O)Nc2ccc(OCCN3CCOCC3)cc2)cc1`: 121 ± 12%; `Cc1ccc2c(-c3ccnc(Nc4ccc5c(c4)OCCO5)n3)c(-c3ccc(C(F)(F)F)cc3)nn2n1`: 99 ± 26%. Next, `Cc1nc(Nc2cnn(C3CCNCC3)c2)nc2c1N(C)C(=O)c1cc3ccccc3cc1N2C`: 100 ± 30%. Next, `CCn1c2cc(Cl)c(F)cc2c(=O)c2c(=O)o[nH]c21`: 86.1 ± 18%; `O=C1NC(=O)C(c2c[nH]c3sccc23)=C1c1nc(N2CCN(CCO)CC2)nc2ccccc12`: 97.7 ± 18%. On to `COc1cc(Nc2cnc(C#N)c(O[C@H](C)CN(C)C)n2)ncc1-c1cnn(C)c1`, for which the metabolic activity came to 124 ± 3.9%. Take `CCOc1nc(C(=O)NCc2ccc(S(C)(=O)=O)cc2)cc(N)c1C#N`: the metabolic activity came out at 109 ± 7.4%. Next, `NS(=O)(=O)c1ccc(Nc2ncc(-c3ccccc3)o2)cc1`: 102 ± 16%; `Cc1cc(-c2ccc3c(c2)CC[C@@H](N[C@@H](C)c2ccccc2)C3)cnc1N`: 145 ± 23%. Next, `COc1cc(C2CCNCC2)ccc1Nc1nc(Cc2ccccc2F)n2cnnc2c1C(N)=O.Cl`: 105 ± 20%; `CN(C)C(=O)/C(C#N)=C/c1ccc(-c2nc3cnc4[nH]ccc4c3n2C2CCCCC2)o1`: 109 ± 8.6%.

For `CC(C)(C)S(=O)(=O)c1ccc2nccc(Nc3n[nH]c4ccc(F)cc34)c2c1`, the metabolic activity came out at 107 ± 3.3%. Next, `COc1cc2ncnc(Nc3ccc(F)c(Cl)c3)c2cc1O[C@H]1CC[C@H](N)CC1`: 99.8 ± 13%.

Turning to `O=C(O)C(F)(F)F.O=C(O)C(F)(F)F.c1cc(CNc2nc3ccc(-c4ccncc4)cc3s2)cc(CN2CCOCC2)c1`, the metabolic activity is 142 ± 64%.

Turning to `Cc1c(Cn2c(C)c(C)n3c(=O)cc(N4CCOCC4)nc23)cccc1C(F)(F)F`, the metabolic activity stood at 117 ± 18%. Next, `O=C(NOC[C@H](O)CO)c1ccc(F)c(F)c1Nc1ccc(I)cc1F`: 90.8 ± 38%; `NS(=O)(=O)c1ccc(N/N=C2\C(=O)Nc3ccc(C(=O)NCCc4c[nH]cn4)cc32)cc1`: 105 ± 5.5%; `O=C(c1ccc(-c2cc(-c3c[nH]nc3-c3ccccn3)ccn2)cc1)N1CCCC1`: 111 ± 2.8%.

Turning to `CN(C)CCNC(=O)Nc1ccc(N(C)c2ccnc(Nc3ccc(CS(C)(=O)=O)cc3)n2)cc1.Cl`, the metabolic activity was determined as 106 ± 28%.

Take `Cc1ccc(NC(=O)Nc2ccccc2F)cc1-c1ccc(C(=O)Nc2ccncc2)cc1`: the metabolic activity is 108 ± 4.4%.

In the case of `Cl.O=C(Nc1ccc(Oc2ccc3[nH]c(NC(=O)c4ccco4)nc3c2)cc1)Nc1cc(C(F)(F)F)ccc1F`, the metabolic activity was found to be 117 ± 8.9%. Next, `O=S(=O)(NCCNC/C=C/c1ccc(Br)cc1)c1cccc2cnccc12`: 100.9 ± 0.67%; `COc1cc2ncnc(Nc3cccc(Cl)c3F)c2cc1O[C@H]1CC[C@H]([C@@H]2NCCNC2=O)CC1`: 106 ± 21%; `CN1C(=O)c2ccccc2N(C)c2nc(Nc3cnn(C4CCNCC4)c3)ncc21`: 74.7 ± 57%.

For `Cl.O=C(O[C@H]1CN[C@H](C#Cc2cc3ncnc(Nc4ccc5c(cnn5Cc5ccccc5)c4)c3s2)C1)N1CCOCC1`, the metabolic activity turned out to be 118 ± 33%.

Take `CNC(=O)CN1CCC(C(=O)Nc2ncc(SCc3ncc(C(C)(C)C)o3)s2)CC1`: the metabolic activity was found to be 107 ± 8.2%. Next, `CCOc1ccc2c(-c3ccnc(Nc4cccc(OC(F)(F)F)c4)n3)cnn2n1`: 96.4 ± 14%; `CCOc1ccc2c(-c3ccnc(Nc4cc(OC)cc(C(F)(F)F)c4)n3)cnn2n1`: 121 ± 14%; `CCc1c(-c2nonc2N)nc2c(C#Cc3ccccc3)ccc(N3C[C@H](O)[C@@H](O)C3)n12`: 115 ± 5.1%. For the compound `CN1CCN(Cc2ccc(-c3n[nH]c4c3Cc3ccccc3-4)cc2)CC1`, the metabolic activity is 90.8 ± 18%. `C[C@H]1CC[C@@H](C(=O)Nc2ccccc2)CN1c1cc(-c2ccc3c(N)n[nH]c3c2)nc(N)n1`: the metabolic activity was 106 ± 25%. Turning to `O=C(Nc1ccccc1)Nc1cccc(Oc2ccc3nccn3n2)c1`, the metabolic activity stood at 97.1 ± 13%. Consider `CN1CCN(Cc2ccc3c(c2)Cc2c(-c4cccs4)n[nH]c2-3)CC1`, for which the metabolic activity was 97.8 ± 28%. Next, `Fc1ccccc1-c1cc(NCc2cccnc2)n2ncc(Br)c2n1`: 26.7 ± 12%.
